The values below come from doi:10.1101/513135.

These are yes or no findings as the source states them, for the method shown. In cells and extracts the contact can be indirect. Some binding calls cover weakened binding; strength is not graded here. Tags and fused reporters may be left off the sequences shown.

The chains are these.
B1: Cit1-HA (protein, UniProt P00890 38-479)
chain: SSASEQTLKERFAEIIPAKAEEIKKFKKEHGKTVIGEVLLEQAYGGMRGIKGLVWEGSVLDPEEGIRFRGRTIPEIQRELPKAEGSTEPLPEALFWLLLTGEIPTDAQVKALSADLAARSEIPEHVIQLLDSLPKDLHPMAQFSIAVTALESESKFAKAYAQGVSKKEYWSYTFEDSLDLLGKLPVIASKIYRNVFKDGKITSTDPNADYGKNLAQLLGYENKDFIDLMRLYLTIHSDHEGGNVSAHTTHLVGSALSSPYLSLAAGLNGLAGPLHGRANQEVLEWLFKLREEVKGDYSKETIEKYLWDTLNAGRVVPGYGHAVLRKTDPRYTAQREFALKHFPDYELFKLVSTIYEVAPGVLTKHGKTKNPWPNVDSHSGVLLQYYGLTEASFYTVLFGVARAIGVLPQLIIDRAVGAPIERPKSFSTEKYKELVKKIESKN
B2: Mic60-HA (protein, UniProt P36112 18-540)
chain: ASINTGTTVASKKASHKFRNTLWTIALSATAFYAGGIIYSQKNDKFGDFFSNNVPFAEDLLETYEHYHDRPTLFLEDSWDGLKAKSNDLLSGLTGSSQTRRSNRENIEVKKILSLEPLNIETENSDPQLKEIIGSLNDLINSLNDSNLSIPESEFNSIKKSNQNMLTNLSQLNETLKEALSNYMIQRTSEVITELNTQYENSKREFEKNLQKNLLQEVDEFKENLTKQKDKELEEKLKANEELLQAKHANEVGLLSITQVKEFNKIIKDKIEKERNGRLAHLEEINSEVNDLSKSIDRSSKILSKNEALVQLTFQVDEIKSRINNNNLPDVNIDKELSRLKLLSNLLSTFNKKSCCDDGDCCSCKKGNKNEGKEGKISCKCKPKTNPPSLLSVALDELESTCSGKKILSNEQIYNRWNLLADDFKTASLLPPNSGILGQLTAKVFSLFLFTKTGNPSNATDFDSVYARVGDNLRVSNLNDAVEEVVSLKGWPHKVCESWIEDARRKLEVQRLVEILDCEIRTL
B3: Idh1-HA (protein, UniProt P28834 12-360)
chain: ATAAQAERTLPKKYGGRFTVTLIPGDGVGKEITDSVRTIFEAENIPIDWETINIKQTDHKEGVYEAVESLKRNKIGLKGLWHTPADQTGHGSLNVALRKQLDIYANVALFKSLKGVKTRIPDIDLIVIRENTEGEFSGLEHESVPGVVESLKVMTRPKTERIARFAFDFAKKYNRKSVTAVHKANIMKLGDGLFRNIITEIGQKEYPDIDVSSIIVDNASMQAVAKPHQFDVLVTPSMYGTILGNIGAALIGGPGLVAGANFGRDYAVFEPGSRHVGLDIKGQNVANPTAMILSSTLMLNHLGLNEYATRISKAVHETIAEGKHTTRDIGGSSSTTDFTNEIINKLSTM

The assay concerns the target T1, Mdh1-GFP (S. cerevisiae) (UniProt P17505).
T1 sequence: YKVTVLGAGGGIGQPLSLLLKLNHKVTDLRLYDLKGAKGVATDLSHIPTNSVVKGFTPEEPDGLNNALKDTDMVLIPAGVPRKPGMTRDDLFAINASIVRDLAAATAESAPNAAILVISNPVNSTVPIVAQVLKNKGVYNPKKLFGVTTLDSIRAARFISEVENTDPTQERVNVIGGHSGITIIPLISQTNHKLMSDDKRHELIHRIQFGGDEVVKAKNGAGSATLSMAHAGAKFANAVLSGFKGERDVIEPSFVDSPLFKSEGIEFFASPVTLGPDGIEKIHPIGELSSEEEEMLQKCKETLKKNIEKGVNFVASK
Kind of assay: co-IP.
Turning to B1, the binding result is “binds”.
For the molecule B2, the binding entry is given as “binds”.
Regarding B3, the binding entry is on record as “binds”.
